From ChEMBL document CHEMBL3988442, “University of Dundee, Small-Polar-MMV Screening Library” (2021).

The chains behind the UniProt entries cited, without tags or fusion partners.
UniProt E9BF75, entry or part of it: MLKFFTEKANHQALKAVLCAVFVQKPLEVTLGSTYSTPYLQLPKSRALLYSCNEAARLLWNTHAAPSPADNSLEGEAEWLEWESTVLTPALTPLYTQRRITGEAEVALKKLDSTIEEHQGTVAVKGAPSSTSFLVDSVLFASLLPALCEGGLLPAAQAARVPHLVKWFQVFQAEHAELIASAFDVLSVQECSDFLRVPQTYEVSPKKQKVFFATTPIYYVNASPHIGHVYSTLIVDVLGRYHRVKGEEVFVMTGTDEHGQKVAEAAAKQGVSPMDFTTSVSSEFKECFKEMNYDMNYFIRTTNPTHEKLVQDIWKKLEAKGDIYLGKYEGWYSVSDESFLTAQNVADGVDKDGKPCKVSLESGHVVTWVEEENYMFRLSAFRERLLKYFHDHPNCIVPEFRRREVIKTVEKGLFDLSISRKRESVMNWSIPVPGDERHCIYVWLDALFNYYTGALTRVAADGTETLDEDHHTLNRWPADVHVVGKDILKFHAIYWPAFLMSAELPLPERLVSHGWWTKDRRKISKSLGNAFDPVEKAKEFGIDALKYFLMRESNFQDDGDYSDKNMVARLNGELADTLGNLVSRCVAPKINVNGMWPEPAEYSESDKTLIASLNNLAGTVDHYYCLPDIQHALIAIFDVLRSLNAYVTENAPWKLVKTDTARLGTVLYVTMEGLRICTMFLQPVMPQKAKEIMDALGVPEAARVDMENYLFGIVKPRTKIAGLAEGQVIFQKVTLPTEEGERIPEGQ

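Primary screen of methionyl-tRNA synthetase; the read-out is not stated. Target: Methionyl-tRNA synthetase (putative), Leishmania donovani (UniProt E9BF75). The test concentration is not given. Values are per cent inhibition. Of about 68,000 compounds tested this way, about 24 (0.035%) reached 50% or more in at least one test.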

All values are in %.
The controls that fix the scale are not given in the record; negative values are as filed.
This is an unselected part of the compounds tested.

| structure | inhibition |
|---|---|
| `CN(C)C(=O)CN1CCO[C@H]2CN(Cc3cccc(F)c3)C[C@H]21` | 15.06% |
| `O=C(Cc1ccccn1)N1CCN(C(=O)c2cccc3[nH]ncc23)CC1` | 4.861% |
| `CCn1cc(CN2CCCn3nc(CCC(=O)NCCO)cc3C2)cn1` | 7.874% |
| `Cc1ccc(C)c(CSc2nnc(C(N)C(C)C)o2)c1` (configuration not stated) | 3.927% |
| `CC1CN(C)CCN1C(=O)NCCCn1ccnc1` (configuration not stated) | 4.872% |
| `Cc1ccc(-c2noc(CN3CCC(N4CCNC4=O)CC3)n2)cc1` | 16.24% |
| `CC(=O)N1CCOC(c2c(C(=O)NC(C)(C)C)sc3ccccc23)C1` (configuration not stated) | 12.66% |
| `Cc1ccc2c(c1)OCCCC2NCc1nnc2n1CCCCC2` (configuration not stated) | 7.807% |
| `O=C(O)Cn1nc(-c2ccccc2F)ccc1=O` | 11.11% |
| `CN1C[C@@H](N)C[C@H]1C(=O)N1CCC(Cc2ccc(F)cc2)CC1` | 21.5% |
| `CC(C)c1ccc(C(C)NC(=O)N2CCC(n3cncn3)CC2)cc1` (configuration not stated) | 11.74% |
| `O=C(NCc1cc[nH]n1)NCC(c1ccco1)N1CCCC1` (configuration not stated) | 9.294% |
| `N#Cc1cccc(OCCN2CCOC(Cn3cccn3)C2)c1` (configuration not stated) | 22.86% |
| `Cc1ccc(CN2CCn3cc(CN4CCN(C)CC4)nc3C2)cc1` | 5.279% |
| `CCCN1CCCn2nc(CNC(=O)CC(C)n3ccnc3C)cc2C1` (configuration not stated) | 3.833% |
| `CC(C)C1CN(C(=O)c2cn3cc(Cl)cnc3n2)CCCN1CC1CC1` (configuration not stated) | 13.75% |
| `CN(C)c1nccc(N(C)C2CCOCC2)n1` | 11.5% |
| `Cc1cccc(OCCC(=O)N(C)CC(C)C#N)c1C` (configuration not stated) | 10.44% |
| `Cc1nc2n(n1)CC(NCc1ccc(Cl)c3cccnc13)CC2` (configuration not stated) | 13.17% |
| `CC(C(=O)NCc1ccnc(N2CCCC2)c1)n1cccn1` (configuration not stated) | 15.85% |
| `Cc1cnc(CC2COCCN(C(=O)CN3CCOCC3)C2)cn1` (configuration not stated) | 10.11% |
| `Cc1ccc(OCc2nnc(SCC3CCCN(C)C3)o2)cc1` (configuration not stated) | 6.983% |
| `COCCNC(=O)NC(C)COc1ccc(F)cc1F` (configuration not stated) | 6.402% |
| `COCc1ncc(CN(CCN(C)C)Cc2ccc(C)s2)cn1` | 3.846% |
| `CC(C)c1nnc(CN2CCN(C(C)c3nc(C4CC4)no3)CC2)o1` (configuration not stated) | 7.65% |
| `CN(C)C[C@@H]1CCC[C@@H]2CN(c3ncccn3)C[C@@H]21` | 7.222% |
| `CCS(=O)(=O)N1CCC2(CC1)CN(c1cncnc1)C(=O)CO2` | 12.97% |
| `CCOC(C)c1nc(Cn2cc(C(=O)NC)ccc2=O)cs1` (configuration not stated) | 5.319% |
| `COCCCNC(=O)Nc1c(C)cccc1C(C)C` | 7.046% |
| `Cc1[nH]ncc1CCCNC(=O)Nc1ccc2c(c1)OC1(CCCC1)O2` | 12.5% |
| `Cn1cnc2c1C(COCC1CCOCC1)CN(c1ncccn1)C2` (configuration not stated) | 9.841% |
| `CN1CCN([C@@H]2CCN(C(N)=O)[C@H]2Cc2ccccc2)CC1` | 3.136% |
| `CCS(=O)(=O)N1Cc2c(Cn3ccnc3)nn(C(C)C)c2C1` | 5.923% |
| `COCCCNC(=O)Cc1cc(-c2ccccc2)on1` | 2.174% |
| `CC(C)NC(=O)C1CCN(C(C)C(=O)N2CCc3sccc3C2)CC1` (configuration not stated) | 1.289% |
| `CCn1cnnc1CNC(=O)N1CCN(c2cccc(C)c2)CC1` | 17.95% |
| `COc1ccc(CN2CC[C@H]3O[C@@H](C(=O)NCC4CC4)CC[C@H]32)cc1` | 14.72% |
| `Cc1noc([C@@H]2CC[C@@H]3[C@@H](CCN3c3nnc(C)s3)O2)n1` | 18.18% |
| `CNC(=O)c1cccnc1N1CCC(OCc2ccccc2)CC1` | 12.11% |
| `COc1c(C2CCCN2C(=O)c2cc(Cl)c[nH]2)c(C)nn1C` (configuration not stated) | 19.05% |
| `Cc1ccccc1OCC1CCCN(C(=O)CNC(=O)N(C)C)C1` (configuration not stated) | 8.078% |
| `COc1ccc(S(=O)(=O)NCC(O)c2sccc2C)cc1C` (configuration not stated) | 15.11% |
| `c1cnc(N2CCOCC3(CCCN(Cc4cc[nH]n4)C3)C2)nc1` (configuration not stated) | 6.62% |
| `COc1c(CNCc2cccnc2OC2CCCC2)c(C)nn1C` | 10.1% |
| `Cc1ccc(C(=O)N2CCC3(CC2)COC(COc2cccnc2)C3)o1` (configuration not stated) | 12.42% |
| `CS(=O)(=O)CCCOc1cccc(-n2cccn2)c1` | -1.449% |
| `Nc1cc(-c2cc(O)cc(C(=O)O)c2)c2cc[nH]c2n1` | 19.93% |
| `COc1ccc(CN2C[C@@H]3COC[C@]3(COc3cccnc3)C2)cc1` | 7.619% |
| `COc1ccc(C2CC(=O)Nc3c2nc2n3CCCC2)cc1O` (configuration not stated) | 10.37% |
| `CN(C)[C@@H]1CN(C(=O)c2ccc(C#N)cc2)[C@@H]2CCCO[C@H]12` | 4.348% |
| `COCC1CN(Cc2ccoc2)Cc2nnn(C)c21` (configuration not stated) | 7.19% |
| `COC(=O)c1ccc(Cl)c(NS(=O)(=O)c2cn(C)cn2)c1` | 4.396% |
| `Cc1cc(C)n(CC(C)NC(=O)C2(c3ccc(F)cc3)CC2)n1` (configuration not stated) | 8.791% |
| `CCN(C)[C@H]1CN(C(=O)c2cccc(N3CCS(=O)(=O)CC3)c2)C[C@@H]1O` | 0.5115% |
| `Cn1ccnc1CN1CCCN(C(=O)c2ccc3cc[nH]c3c2)CC1` | 5.307% |
| `CC(C)CNC(=O)[C@H]1CCS(=O)(=O)[C@@H]2CN(Cc3ccc(Cl)cc3)C[C@H]12` | 7.619% |
| `CCc1ccc(CN2CCCCC2c2n[nH]cc2-c2cc(C)no2)cc1` (configuration not stated) | 16.19% |
| `Cc1ccc(C(CC(=O)O)NC(=O)CCc2cccs2)cc1` (configuration not stated) | 26.55% |
| `OCCn1nccc1C1CCN(CCOc2ccccc2F)CC1` | 22.29% |
| `CCN1CCc2c(cccc2NC(=O)N(C)C2CCSC2)C1` (configuration not stated) | 17.88% |
| `CC(=O)N1CCO[C@@H]2CN(Cc3ccccc3Cl)C[C@@H]2C1` | 19.22% |
| `Cc1ccc(C2(CN(C)Cc3snnc3C)CCNCC2)nc1` | 10% |
| `Cc1cc(=O)c(C(=O)N2CCCCC2c2ccc(F)cc2)c[nH]1` (configuration not stated) | 12.29% |
| `O=C1CCC2(CCN(Cc3ncccn3)CC2)CN1CCCO` | 1.681% |
| `CCc1noc(CN(C)CCC(=O)Nc2ccc(C#N)c(Cl)c2)n1` | 10.87% |
| `O=C(NCc1ccccn1)NCC(O)c1ccccc1C(F)(F)F` (configuration not stated) | 15.33% |
| `COc1ccc(CNCC(C)Oc2ccccn2)cc1Cl` (configuration not stated) | 13.03% |
| `O=C(c1cccs1)N1CC(C(=O)N2CCCC2)C2(CCOCC2)C1` (configuration not stated) | 15.31% |
| `Cc1nc(N)nc(C)c1CC(=O)N1CCCCC1c1cccc(F)c1` (configuration not stated) | 12.71% |
| `CC(=O)Nc1c(C)cnn1Cc1cc(F)ccc1F` | 5.854% |
| `CCn1nc(C)c(CCn2ccnc2-c2cc3n(n2)CCNC3)c1C` | 8.904% |
| `CN1CCc2ncc(CNC(=O)c3cccn3C)n2CC1` | 13.33% |
| `NC(=O)c1c[nH]nc1NC(=O)c1ccc(Cl)cc1` | 6.757% |
| `Cc1ccc2c(n1)N(CCN(C)C)CCN(C(=O)c1ccoc1)C2` | 18.68% |
| `O=C(N[C@]12CC1CN(C(=O)c1ccco1)C2)c1ccoc1` (some centres not stated) | 8.889% |
| `CCCOCCOC(=O)c1ccc2c(c1)[nH]c(=O)n2C` | 13.61% |
| `CC(CS(C)(=O)=O)N(C(=O)c1ccc(Cl)s1)C1CC1` (configuration not stated) | 14.93% |
| `O=C(NCCC1COc2ccccc2O1)c1ccc(-c2cn[nH]c2)nc1` (configuration not stated) | 16.37% |
| `COc1ccc(CCC(=O)NCCC2CCCO2)cc1Br` (configuration not stated) | 11.71% |
| `Cc1ncnc2c1CCN(C(=O)c1ccoc1)CC2` | 12.78% |
| `CCOc1ccc2c(c1)CN(Cc1nc3c(cnn3C)c(=O)[nH]1)CC2` | 23.46% |
| `NC(=O)C1CCCN(c2ccc(CNC(=O)c3cc[nH]n3)cc2)C1` (configuration not stated) | 5.444% |
| `CN(Cc1cn2c(n1)CN(C1CCOCC1)CC2)Cc1ccco1` | 5.495% |
| `COc1ccc(C(=O)N2CCC3(CCC(=O)N(C(C)C)C3)CC2)cc1C` | 8.696% |
| `Cc1ncncc1C(=O)N1CCOC(c2nc(C(C)C)n[nH]2)C1` (configuration not stated) | 16% |
| `Cc1nnc(NC(=O)NCc2ccc(N3CCOCC3)nc2)s1` | 18.75% |
| `CC(C)NC(=O)C1CN(C(=O)c2ccc(F)cc2)CC12CCOCC2` (configuration not stated) | -2.075% |
| `COC(=O)c1sccc1S(=O)(=O)N1CCC(Oc2ncccc2Cl)CC1` | -5.419% |